Data reported in the supplement of paper PMC12819154, “High-throughput peptide-centric local stability assay extends protein–ligand identification to membrane proteins, tissues and bacteria” (Nature Structural & Molecular Biology, 2025).
Some of the results follow. Most entries show no effect beyond the scatter of the controls.

Protein sequences, listed by entry. Tags and fused reporters are not part of them. Lines headed by an entry give the natural chain unless they say otherwise; changes in a name come on top.
UniProt Q3TPE9: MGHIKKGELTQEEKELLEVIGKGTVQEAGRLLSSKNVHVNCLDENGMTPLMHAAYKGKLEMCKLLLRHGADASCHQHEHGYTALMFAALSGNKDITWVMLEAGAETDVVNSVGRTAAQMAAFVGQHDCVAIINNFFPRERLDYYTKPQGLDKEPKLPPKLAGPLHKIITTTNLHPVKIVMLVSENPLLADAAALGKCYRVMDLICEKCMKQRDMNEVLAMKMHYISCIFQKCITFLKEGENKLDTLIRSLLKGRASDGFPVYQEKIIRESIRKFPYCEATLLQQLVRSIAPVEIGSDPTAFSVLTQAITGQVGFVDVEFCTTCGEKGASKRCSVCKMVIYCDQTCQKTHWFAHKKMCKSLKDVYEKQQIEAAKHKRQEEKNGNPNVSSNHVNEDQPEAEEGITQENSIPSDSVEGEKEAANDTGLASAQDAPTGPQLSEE
UniProt Q08761: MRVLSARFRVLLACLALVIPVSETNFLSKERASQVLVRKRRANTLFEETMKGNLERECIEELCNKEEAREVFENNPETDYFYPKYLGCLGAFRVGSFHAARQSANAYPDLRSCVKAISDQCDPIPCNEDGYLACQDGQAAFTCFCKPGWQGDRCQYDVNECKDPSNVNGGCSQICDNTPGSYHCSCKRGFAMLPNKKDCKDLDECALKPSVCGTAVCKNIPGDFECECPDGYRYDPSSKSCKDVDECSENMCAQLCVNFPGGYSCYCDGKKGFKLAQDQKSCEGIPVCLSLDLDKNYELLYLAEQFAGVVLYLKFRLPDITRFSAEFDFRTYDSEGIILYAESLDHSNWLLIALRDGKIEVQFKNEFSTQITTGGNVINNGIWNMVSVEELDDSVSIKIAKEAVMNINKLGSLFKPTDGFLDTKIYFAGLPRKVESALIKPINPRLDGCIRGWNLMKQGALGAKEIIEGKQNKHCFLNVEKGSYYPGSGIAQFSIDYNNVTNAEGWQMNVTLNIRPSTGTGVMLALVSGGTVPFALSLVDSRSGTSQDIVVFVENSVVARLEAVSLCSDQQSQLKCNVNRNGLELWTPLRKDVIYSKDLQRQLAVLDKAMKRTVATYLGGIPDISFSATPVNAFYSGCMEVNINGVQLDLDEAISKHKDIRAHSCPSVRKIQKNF
UniProt Q3TIX9: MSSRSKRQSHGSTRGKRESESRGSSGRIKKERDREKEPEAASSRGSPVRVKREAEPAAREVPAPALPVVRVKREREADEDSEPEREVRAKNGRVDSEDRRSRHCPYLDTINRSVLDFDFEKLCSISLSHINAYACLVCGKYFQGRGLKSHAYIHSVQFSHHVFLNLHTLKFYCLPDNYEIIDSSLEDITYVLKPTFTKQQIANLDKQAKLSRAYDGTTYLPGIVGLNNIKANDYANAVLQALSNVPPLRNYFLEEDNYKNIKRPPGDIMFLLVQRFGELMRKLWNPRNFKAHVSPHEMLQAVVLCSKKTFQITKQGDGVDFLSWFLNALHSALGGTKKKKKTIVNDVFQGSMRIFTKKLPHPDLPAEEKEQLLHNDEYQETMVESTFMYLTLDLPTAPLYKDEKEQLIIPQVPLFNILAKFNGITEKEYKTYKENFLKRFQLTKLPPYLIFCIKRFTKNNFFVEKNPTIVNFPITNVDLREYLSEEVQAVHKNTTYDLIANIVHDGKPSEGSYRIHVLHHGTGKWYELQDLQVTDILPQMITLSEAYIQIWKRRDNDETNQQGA
UniProt Q3TT38: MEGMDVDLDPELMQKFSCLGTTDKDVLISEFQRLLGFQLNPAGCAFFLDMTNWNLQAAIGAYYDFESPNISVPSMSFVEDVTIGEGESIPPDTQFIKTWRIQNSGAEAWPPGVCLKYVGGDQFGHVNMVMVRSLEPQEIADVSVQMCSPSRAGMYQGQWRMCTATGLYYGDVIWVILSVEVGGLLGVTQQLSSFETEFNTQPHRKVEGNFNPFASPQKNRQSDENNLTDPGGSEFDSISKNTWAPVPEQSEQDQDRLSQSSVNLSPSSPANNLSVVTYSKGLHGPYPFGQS
UniProt Q03265: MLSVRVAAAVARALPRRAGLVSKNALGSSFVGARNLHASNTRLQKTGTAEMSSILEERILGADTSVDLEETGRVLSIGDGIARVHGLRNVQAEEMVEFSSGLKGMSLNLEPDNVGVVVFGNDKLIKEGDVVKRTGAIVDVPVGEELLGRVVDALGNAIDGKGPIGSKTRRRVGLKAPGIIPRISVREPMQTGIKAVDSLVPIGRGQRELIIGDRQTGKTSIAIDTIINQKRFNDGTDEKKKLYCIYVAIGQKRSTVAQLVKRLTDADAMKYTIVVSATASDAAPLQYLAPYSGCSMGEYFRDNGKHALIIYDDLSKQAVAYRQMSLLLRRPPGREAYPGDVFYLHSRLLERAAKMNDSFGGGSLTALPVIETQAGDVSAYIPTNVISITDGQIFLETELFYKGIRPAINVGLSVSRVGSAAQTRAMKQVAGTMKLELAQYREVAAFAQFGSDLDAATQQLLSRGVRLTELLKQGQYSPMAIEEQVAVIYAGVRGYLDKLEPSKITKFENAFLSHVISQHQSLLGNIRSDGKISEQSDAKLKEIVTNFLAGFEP
UniProt Q3TCJ1, whole entry, looked up: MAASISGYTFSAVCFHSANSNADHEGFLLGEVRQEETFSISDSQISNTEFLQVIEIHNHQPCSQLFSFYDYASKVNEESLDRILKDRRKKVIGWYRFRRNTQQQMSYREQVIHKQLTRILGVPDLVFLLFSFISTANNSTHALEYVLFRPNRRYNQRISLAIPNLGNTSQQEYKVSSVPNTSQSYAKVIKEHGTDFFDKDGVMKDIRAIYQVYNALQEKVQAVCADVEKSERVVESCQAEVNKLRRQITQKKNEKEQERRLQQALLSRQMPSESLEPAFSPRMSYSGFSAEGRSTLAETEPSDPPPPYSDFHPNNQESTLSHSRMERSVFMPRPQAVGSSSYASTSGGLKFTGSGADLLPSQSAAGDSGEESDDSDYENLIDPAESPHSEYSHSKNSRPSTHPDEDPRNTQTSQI
UniProt Q3TL44, whole entry: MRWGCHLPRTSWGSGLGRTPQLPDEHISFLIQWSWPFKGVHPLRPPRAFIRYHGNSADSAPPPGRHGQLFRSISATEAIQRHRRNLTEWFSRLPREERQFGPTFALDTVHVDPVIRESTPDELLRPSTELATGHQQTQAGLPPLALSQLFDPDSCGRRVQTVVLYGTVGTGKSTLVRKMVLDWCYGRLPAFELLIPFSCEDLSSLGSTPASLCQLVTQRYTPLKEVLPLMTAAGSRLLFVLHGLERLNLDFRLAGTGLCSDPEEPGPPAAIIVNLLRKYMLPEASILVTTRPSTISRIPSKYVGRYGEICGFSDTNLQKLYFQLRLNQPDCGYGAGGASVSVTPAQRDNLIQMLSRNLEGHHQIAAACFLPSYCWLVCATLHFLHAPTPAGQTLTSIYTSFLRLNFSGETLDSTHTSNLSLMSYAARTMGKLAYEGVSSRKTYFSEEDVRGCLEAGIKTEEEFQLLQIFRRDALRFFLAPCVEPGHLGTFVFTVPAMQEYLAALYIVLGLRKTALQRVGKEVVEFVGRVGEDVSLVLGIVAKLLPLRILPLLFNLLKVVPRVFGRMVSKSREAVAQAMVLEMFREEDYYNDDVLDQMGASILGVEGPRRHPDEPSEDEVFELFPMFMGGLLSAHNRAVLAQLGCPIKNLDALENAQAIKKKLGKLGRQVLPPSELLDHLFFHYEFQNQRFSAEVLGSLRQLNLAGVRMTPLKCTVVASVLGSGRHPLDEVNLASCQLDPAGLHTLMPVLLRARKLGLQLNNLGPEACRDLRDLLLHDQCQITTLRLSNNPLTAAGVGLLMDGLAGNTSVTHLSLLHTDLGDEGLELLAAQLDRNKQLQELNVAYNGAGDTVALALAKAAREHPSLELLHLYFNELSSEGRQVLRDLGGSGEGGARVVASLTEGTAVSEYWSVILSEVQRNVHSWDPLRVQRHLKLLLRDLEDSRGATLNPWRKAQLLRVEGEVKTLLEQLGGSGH
UniProt Q3TJD7, whole entry: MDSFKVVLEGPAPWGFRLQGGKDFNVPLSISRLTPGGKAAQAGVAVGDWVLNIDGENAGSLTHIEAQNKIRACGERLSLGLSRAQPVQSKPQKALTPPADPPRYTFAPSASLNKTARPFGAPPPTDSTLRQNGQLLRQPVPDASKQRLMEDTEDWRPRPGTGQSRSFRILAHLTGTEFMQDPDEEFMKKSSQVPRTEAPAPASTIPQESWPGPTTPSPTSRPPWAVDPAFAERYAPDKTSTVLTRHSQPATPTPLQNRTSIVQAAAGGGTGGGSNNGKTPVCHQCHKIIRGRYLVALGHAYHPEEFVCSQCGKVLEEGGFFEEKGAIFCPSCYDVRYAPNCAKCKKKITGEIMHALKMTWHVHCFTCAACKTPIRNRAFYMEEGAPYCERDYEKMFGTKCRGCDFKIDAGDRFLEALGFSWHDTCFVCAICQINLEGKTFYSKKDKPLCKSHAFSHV
UniProt Q2VLH6: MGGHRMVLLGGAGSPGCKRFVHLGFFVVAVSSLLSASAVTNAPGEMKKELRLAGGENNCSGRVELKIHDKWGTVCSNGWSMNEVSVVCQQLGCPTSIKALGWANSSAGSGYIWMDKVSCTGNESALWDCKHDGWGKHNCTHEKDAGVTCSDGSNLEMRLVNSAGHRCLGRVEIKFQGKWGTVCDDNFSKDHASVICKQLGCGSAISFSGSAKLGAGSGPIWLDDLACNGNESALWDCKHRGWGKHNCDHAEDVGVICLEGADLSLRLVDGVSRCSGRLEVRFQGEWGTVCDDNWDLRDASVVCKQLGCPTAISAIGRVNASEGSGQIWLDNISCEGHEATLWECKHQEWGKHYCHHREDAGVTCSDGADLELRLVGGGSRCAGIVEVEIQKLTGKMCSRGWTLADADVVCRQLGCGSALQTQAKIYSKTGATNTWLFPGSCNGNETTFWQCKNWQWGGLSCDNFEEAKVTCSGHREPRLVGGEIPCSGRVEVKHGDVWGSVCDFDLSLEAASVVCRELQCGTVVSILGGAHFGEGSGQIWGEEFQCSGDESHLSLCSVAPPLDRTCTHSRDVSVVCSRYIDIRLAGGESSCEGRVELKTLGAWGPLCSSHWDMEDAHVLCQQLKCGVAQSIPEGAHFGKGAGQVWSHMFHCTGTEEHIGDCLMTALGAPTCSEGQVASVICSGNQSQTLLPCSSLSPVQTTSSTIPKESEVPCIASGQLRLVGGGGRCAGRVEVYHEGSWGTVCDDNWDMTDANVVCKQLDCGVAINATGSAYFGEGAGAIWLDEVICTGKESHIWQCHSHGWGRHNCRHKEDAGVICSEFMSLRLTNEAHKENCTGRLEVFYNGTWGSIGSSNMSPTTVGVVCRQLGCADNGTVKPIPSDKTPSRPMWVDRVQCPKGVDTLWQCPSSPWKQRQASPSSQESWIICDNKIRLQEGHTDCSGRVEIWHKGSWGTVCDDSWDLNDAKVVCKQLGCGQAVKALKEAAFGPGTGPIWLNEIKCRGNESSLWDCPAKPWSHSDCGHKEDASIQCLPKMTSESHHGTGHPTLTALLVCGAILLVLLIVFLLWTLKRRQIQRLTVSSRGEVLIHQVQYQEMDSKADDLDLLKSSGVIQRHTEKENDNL
UniProt Q3U1J1, whole entry: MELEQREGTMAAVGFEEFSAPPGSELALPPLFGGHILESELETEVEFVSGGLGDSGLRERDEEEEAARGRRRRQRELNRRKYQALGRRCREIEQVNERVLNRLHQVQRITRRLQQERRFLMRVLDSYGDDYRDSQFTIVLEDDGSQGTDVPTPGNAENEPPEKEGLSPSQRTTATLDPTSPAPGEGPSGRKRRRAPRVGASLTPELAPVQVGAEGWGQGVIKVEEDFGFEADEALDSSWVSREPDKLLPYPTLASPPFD
UniProt Q3U308: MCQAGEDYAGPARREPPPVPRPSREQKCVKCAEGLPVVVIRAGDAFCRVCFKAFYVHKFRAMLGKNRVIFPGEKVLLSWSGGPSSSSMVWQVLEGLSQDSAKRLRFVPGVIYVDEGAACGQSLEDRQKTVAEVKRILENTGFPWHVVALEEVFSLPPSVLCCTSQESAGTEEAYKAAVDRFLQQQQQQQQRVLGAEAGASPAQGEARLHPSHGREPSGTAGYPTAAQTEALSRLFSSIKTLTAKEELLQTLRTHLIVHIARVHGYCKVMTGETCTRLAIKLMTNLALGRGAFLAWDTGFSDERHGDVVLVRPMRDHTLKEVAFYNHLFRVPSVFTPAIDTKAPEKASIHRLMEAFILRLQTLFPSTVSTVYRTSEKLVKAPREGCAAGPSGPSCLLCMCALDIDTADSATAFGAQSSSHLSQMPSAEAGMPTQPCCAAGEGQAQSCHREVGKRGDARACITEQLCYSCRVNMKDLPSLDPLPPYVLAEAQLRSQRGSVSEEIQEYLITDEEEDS
UniProt Q3U1C6: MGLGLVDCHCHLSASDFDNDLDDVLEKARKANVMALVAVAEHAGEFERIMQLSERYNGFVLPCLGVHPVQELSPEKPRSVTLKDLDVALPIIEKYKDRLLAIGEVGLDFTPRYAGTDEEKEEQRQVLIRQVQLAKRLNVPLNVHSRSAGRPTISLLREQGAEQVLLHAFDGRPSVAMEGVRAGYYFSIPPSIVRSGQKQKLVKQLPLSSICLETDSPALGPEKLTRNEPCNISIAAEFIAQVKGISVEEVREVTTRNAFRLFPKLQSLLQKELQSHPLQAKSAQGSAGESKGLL

Compound: CN[C@@H]1C[C@H]2O[C@@](C)([C@@H]1OC)n1c3ccccc3c3c4c(c5c6ccccc6n2c5c31)C(=O)NC4 [staurosporine]
Experiment: log2 fold change of tryptic peptide abundance, ligand vs vehicle (limited proteolysis) (log2 ratio); higher = more trypsin-susceptible (destabilized)
Details: ligand concentration: 20 uM; sample: mouse liver crude lysate; replicate design: treated separately

Target | log2 fold change
UniProt Q3TB48 (peptide sequence: AEKRPILSVQR, peptide start residue: 107) | -0.271
UniProt Q3TPE9 (peptide sequence: ELLEVIGK, peptide start residue: 15) | -0.272
UniProt Q08761 (peptide sequence: GFAMLPNKKDCK, peptide start residue: 189) | 0.283
UniProt Q03958 (peptide sequence: KLQGEVEKYQQLQK, peptide start residue: 8) | -0.141
UniProt Q3TIX9 (peptide sequence: EREADEDSEPEREVR, peptide start residue: 74) | -0.512
UniProt Q08874 (peptide sequence: WNKGTILK, peptide start residue: 271) | 0.527
UniProt Q3TUF7 (peptide sequence: TQVTAAGPQK, peptide start residue: 718) | -0.421
UniProt Q3TIV5 (peptide sequence: EKIIEDK, peptide start residue: 21) | -0.199
UniProt Q06335 (peptide sequence: HYQHVLAVDPEKAAQMK, peptide start residue: 454) | -0.468
UniProt Q0VDN7 (peptide sequence: ELEDFAFR, peptide start residue: 127) | -0.205
UniProt Q3TT38 (peptide sequence: KVEGNFNPFASPQK, peptide start residue: 205) | -0.189
UniProt Q03265 (peptide sequence: SDGKISEQSDAKLK, peptide start residue: 528) | -0.132
UniProt Q05793 (peptide sequence: LNWGHIPAHPR, peptide start residue: 442) | 0.831
UniProt Q3TGF2 (peptide sequence: LEQLELEKQK, peptide start residue: 91) | 0.197
UniProt Q3TCJ1 (peptide sequence: PSTHPDEDPR, peptide start residue: 399) | -0.159
UniProt Q3TL44 (peptide sequence: GATLNPWRK, peptide start residue: 945) | 0.476
UniProt Q08943 (peptide sequence: RPMSAYMLWLNASR, peptide start residue: 549) | 0.145
UniProt Q3TMH2 (peptide sequence: TVNLFPQYVKDEIK, peptide start residue: 397) | -0.112

Target | log2 fold change
UniProt Q05816 (peptide sequence: ASLKDLEGKWR, peptide start residue: 2) | 0.274
UniProt Q3TJD7 (peptide sequence: ILAHLTGTEFMQDPDEEFMKK, peptide start residue: 169) | -0.188
UniProt Q2M3X8 (peptide sequence: LSQRPTAEELEQR, peptide start residue: 581) | -0.267
UniProt Q2VLH6 (peptide sequence: GEVLIHQVQYQEMDSK, peptide start residue: 1082) | -0.113
UniProt Q2TPA8 (peptide sequence: DEQQINSAVEK, peptide start residue: 77) | -0.23
UniProt Q3U1J1 (peptide sequence: VLDSYGDDYR, peptide start residue: 123) | -0.561
UniProt Q3U308 (peptide sequence: CVKCAEGLPVVVIR, peptide start residue: 28) | 0.47
UniProt Q33DR2 (peptide sequence: GLYEDIRK, peptide start residue: 99) | 0.129
UniProt Q1HFZ0 (peptide sequence: EILHCLK, peptide start residue: 89) | 0.182
UniProt Q14DQ1 (peptide sequence: LGERPPPAMEKR, peptide start residue: 45) | -0.132
UniProt Q3TRM8 (peptide sequence: ATIGPSGLHPGER, peptide start residue: 2) | 0.133
UniProt Q04692 (peptide sequence: ASLSCFQNQR, peptide start residue: 78) | -0.295
UniProt Q02819 (peptide sequence: VYDPKNEEDDMR, peptide start residue: 275) | -0.61
UniProt Q14DH7 (peptide sequence: GHVPLALCVLK, peptide start residue: 590) | 0.126
UniProt Q3U1C6 (peptide sequence: ELQSHPLQAK, peptide start residue: 272) | -0.519
UniProt Q3TYA6 (peptide sequence: HLDGEDEPFITTNR, peptide start residue: 549) | -0.807
UniProt Q04841 (peptide sequence: LADSEQQQTPK, peptide start residue: 71) | 0.145

A different layout for some results above:
Target	log2 fold change
UniProt Q05816 (peptide sequence: ASLKDLEGKWR, peptide start residue: 2)	0.274
UniProt Q33DR2 (peptide sequence: GLYEDIRK, peptide start residue: 99)	0.129
